Changes are numbered by the printed parent chain. These are yes or no findings as the source states them, for the method shown. In cells and extracts the contact can be indirect. Some results given as binding are weak or reduced against the parent protein; the word gives no strength. Sequences can lack the tags named with a protein.
Assays:
Experiment in all cases: co-IP
[1] = target: T1, GFP-Auxilin (wild type, human) (human) (UniProt O75061)
T1 sequence: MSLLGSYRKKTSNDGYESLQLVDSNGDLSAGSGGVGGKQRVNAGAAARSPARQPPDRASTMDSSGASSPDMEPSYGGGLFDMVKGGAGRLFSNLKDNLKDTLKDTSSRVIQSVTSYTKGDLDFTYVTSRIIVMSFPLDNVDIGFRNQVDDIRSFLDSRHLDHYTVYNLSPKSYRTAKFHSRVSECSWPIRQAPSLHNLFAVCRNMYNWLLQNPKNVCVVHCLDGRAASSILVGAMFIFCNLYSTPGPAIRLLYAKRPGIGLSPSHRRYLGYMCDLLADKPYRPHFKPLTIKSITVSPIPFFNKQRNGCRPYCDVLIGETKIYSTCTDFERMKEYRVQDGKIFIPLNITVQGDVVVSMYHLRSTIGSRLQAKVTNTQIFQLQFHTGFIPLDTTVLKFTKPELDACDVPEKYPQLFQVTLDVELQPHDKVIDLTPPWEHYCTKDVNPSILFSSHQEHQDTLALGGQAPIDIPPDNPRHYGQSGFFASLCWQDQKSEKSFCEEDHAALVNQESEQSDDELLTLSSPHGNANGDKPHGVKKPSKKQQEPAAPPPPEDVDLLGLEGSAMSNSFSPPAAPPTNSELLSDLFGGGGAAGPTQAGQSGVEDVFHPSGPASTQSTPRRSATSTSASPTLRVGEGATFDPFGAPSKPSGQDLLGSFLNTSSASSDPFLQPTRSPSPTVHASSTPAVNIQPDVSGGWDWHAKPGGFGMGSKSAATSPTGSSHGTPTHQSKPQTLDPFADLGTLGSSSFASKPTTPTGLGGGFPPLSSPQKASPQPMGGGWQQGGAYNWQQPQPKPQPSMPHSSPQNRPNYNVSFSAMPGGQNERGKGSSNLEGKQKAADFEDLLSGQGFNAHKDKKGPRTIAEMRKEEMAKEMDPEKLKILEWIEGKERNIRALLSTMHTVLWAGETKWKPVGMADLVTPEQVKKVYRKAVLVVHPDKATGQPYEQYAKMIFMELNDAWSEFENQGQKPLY

Amino acid sequences for entries named in this document (tags omitted).
UniProt Q9UJY4: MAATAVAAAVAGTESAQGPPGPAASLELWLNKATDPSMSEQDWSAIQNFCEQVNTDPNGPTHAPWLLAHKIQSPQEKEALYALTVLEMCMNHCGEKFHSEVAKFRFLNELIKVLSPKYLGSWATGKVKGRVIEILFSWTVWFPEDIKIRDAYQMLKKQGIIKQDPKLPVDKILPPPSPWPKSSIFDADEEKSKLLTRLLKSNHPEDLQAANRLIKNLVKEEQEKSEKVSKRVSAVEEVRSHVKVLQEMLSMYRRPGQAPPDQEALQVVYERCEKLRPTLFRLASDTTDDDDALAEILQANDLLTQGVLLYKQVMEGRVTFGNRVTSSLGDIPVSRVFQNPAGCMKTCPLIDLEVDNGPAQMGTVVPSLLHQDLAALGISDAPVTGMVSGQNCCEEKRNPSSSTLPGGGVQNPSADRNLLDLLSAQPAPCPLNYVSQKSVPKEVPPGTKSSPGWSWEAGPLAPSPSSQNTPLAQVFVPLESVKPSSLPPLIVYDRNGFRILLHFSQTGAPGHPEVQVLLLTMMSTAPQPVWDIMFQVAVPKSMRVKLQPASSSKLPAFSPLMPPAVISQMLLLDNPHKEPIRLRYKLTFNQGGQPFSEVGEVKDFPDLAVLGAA
UniProt Q00610: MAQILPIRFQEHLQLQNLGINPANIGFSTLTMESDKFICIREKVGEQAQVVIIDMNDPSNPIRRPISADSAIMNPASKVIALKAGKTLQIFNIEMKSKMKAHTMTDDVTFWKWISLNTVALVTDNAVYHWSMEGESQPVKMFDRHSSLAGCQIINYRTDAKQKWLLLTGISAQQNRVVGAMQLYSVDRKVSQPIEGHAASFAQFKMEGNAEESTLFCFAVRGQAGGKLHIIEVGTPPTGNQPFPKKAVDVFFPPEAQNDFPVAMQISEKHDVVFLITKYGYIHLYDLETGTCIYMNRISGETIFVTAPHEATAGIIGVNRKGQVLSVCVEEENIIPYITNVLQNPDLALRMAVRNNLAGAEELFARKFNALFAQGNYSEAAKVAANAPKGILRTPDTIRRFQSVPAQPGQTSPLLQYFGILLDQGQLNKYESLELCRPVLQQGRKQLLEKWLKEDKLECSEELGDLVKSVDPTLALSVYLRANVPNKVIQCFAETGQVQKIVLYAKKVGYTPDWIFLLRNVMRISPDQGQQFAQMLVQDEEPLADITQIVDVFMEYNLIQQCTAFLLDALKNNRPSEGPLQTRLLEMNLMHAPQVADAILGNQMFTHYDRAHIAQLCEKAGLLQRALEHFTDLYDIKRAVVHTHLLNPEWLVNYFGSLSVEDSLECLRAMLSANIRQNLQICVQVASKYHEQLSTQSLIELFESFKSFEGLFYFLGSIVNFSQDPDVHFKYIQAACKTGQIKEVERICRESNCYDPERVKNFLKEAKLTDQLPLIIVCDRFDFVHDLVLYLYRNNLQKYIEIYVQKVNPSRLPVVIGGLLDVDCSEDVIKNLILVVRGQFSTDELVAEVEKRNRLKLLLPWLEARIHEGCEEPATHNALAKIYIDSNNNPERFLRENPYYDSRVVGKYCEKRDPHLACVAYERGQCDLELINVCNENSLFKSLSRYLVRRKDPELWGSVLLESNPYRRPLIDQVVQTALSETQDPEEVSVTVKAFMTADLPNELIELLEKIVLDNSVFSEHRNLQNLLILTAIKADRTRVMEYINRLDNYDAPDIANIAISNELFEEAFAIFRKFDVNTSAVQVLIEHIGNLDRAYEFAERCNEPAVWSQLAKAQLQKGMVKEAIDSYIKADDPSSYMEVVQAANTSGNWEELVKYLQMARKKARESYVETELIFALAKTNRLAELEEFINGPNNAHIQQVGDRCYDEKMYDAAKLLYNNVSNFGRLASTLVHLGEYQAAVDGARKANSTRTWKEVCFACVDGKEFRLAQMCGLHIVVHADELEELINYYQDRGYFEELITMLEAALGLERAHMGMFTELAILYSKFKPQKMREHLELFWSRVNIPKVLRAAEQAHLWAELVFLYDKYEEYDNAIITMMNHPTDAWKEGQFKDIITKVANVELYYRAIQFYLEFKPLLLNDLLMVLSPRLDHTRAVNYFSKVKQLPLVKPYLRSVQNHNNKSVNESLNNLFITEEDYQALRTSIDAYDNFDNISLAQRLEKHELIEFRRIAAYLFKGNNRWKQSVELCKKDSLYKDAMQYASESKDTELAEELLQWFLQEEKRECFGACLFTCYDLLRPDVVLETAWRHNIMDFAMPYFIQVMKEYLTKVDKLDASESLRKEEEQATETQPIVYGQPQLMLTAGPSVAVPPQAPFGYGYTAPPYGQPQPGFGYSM

[2] = target: T2, GFP-Auxilin Q791X (human) (UniProt O75061)
T2 sequence: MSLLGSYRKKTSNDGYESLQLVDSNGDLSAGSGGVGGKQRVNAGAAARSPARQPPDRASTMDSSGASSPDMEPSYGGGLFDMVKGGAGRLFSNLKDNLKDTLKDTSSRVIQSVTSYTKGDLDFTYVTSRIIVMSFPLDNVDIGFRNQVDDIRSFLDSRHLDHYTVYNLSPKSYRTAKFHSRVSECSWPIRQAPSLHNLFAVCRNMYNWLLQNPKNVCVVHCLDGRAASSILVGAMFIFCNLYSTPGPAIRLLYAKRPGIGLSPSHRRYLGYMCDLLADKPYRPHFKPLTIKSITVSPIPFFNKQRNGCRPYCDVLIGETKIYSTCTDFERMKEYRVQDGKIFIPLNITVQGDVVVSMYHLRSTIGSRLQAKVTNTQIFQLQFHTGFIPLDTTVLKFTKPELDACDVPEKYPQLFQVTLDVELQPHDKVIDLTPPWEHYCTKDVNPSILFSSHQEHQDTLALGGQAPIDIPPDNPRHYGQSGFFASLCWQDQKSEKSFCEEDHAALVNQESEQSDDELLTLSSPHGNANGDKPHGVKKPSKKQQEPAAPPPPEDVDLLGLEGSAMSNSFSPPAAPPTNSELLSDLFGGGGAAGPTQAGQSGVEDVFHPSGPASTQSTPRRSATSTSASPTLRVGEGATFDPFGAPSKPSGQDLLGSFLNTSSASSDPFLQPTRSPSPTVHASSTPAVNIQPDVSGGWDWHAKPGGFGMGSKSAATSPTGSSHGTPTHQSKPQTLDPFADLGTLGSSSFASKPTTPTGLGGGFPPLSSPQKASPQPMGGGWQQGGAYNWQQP

[3] = target: T3, GFP-Auxilin Q846X (human) (UniProt O75061)
T3 sequence: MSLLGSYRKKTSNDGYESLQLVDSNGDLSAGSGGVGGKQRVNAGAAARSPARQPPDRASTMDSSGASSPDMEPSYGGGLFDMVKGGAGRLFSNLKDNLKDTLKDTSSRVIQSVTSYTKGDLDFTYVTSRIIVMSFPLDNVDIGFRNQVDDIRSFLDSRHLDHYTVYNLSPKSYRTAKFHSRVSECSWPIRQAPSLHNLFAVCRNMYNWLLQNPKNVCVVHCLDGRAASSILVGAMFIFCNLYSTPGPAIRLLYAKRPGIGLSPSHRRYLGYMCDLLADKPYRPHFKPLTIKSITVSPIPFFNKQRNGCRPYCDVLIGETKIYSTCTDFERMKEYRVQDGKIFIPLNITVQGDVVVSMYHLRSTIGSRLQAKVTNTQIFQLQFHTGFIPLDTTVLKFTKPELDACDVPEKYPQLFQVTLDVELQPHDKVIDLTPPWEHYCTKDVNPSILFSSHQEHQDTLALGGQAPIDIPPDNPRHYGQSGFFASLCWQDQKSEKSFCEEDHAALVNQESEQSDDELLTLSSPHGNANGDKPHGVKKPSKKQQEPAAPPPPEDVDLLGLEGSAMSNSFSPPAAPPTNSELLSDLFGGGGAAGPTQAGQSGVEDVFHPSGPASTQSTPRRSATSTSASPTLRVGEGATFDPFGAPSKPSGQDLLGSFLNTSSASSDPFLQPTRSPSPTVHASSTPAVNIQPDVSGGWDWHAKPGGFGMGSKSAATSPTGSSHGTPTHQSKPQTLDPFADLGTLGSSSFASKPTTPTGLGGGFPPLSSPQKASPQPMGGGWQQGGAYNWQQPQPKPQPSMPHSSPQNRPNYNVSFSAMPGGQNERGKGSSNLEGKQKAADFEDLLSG

[4] = target: T4, GFP-Auxilin R927G (human) (UniProt O75061)
T4 sequence: T1 sequence with R927G

GFP-GAK = target: T5, GFP-GAK (UniProt O14976)
T5 sequence: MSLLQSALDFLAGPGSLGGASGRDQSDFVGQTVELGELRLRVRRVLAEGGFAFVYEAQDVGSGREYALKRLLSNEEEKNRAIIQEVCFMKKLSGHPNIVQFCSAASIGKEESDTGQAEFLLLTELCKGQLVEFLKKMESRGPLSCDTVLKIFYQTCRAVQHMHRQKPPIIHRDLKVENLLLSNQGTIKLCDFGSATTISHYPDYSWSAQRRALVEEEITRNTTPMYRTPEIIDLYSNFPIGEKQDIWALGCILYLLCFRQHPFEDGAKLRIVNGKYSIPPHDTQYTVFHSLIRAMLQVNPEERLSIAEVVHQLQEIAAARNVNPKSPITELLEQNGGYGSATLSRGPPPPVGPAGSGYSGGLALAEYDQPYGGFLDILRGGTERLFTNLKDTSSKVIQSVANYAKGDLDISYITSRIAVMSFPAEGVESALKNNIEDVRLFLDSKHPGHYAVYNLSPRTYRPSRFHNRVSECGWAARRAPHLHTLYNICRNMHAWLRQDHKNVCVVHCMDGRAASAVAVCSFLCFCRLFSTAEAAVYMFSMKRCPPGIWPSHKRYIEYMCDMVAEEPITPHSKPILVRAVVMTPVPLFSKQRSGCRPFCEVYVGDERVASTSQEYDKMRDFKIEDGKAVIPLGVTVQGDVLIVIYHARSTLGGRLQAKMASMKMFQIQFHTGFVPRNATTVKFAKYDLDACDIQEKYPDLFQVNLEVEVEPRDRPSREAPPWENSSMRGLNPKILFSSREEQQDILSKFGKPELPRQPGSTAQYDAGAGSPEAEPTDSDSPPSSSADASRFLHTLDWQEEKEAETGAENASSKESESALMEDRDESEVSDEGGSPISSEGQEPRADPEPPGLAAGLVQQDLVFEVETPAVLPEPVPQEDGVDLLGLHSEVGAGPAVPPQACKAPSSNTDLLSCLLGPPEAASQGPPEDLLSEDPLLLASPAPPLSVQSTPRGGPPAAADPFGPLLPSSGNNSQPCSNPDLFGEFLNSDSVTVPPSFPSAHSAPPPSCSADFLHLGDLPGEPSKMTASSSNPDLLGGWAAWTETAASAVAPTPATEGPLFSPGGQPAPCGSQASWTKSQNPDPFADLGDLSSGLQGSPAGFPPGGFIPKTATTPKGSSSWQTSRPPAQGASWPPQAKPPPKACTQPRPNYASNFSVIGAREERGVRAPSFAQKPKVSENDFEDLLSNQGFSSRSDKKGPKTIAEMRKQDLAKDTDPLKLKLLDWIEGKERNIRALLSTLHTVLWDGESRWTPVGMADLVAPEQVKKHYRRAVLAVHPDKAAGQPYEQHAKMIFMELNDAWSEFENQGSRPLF

| binding [1] | binding [2] | binding [3] | binding [4] | binding (GFP-GAK) | Substance |
| --- | --- | --- | --- | --- | --- |
| binds | binds | binds | binds | no binding | GGA2, endogenous in HEK293FT (from UniProt Q9UJY4 1-613) |
| binds | – | – | binds | – | clathrin heavy chain (CHC), endogenous in HEK293FT (from UniProt Q00610 1-1675) |

— doi:10.1101/830802
